# Results: PubChem BioAssay AID504834 (National Center for Advancing Translational Sciences (NCATS), 2011)
# The whole screen tested about 320,000 compounds, of which about 22,000 (6.9%) were called active. This list was built around the results that the source calls inconclusive (neither active nor inactive); the mix of calls is not that of the screen. The call rests on the fitted dose curve; in most records, active means well fitted inhibition curve with a large enough effect; inconclusive means small, poorly fitted or top-dose-only effect, or another doubt; inactive means no such curve, though single readings can be large or run the other way. Potencies of inconclusive entries are doubtful fits and often do not repeat.
# Experiment: Primary qHTS for delayed death inhibitors of the malarial parasite plastid, 96 hour incubation
# Conditions: P. falciparum luciferase reporter growth; series mostly up to 28.7 µM
# Summary of the method: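 Plates of compound plus infected erythrocytes (2% hematocrit, 0.05% parasitemia final) incubate 96 hours, 37 C, 5% CO2. Detection reagent added; reduced luminescence from the parasites' luciferase reporter flags inhibition.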
# On the % scale 0 is the no-effect control and ±100 the full control effect; potency means the concentration at half of the fitted maximal effect.
Compound,Potency,"activity change, negative = inhibition"
COc1ccc(C2CC(c3ccc(Cl)cc3)n3nc(N)nc3N2)cc1 (configuration not stated),"inconclusive: 18.5 µM [inhibitor, single point]",–
O=C(NCc1ccccc1CN1CCCC1)c1ccc(Cl)c(S(=O)(=O)N2CCCC2)c1,active: 11.7 µM,–
COc1ccc(CC(=O)Nc2cccc(SC)c2)cc1,inactive,–
CC1CC=C(c2ccccc2)C(=S)N1 (configuration not stated),"inconclusive: 14.7 µM [inhibitor, partial curve]",–
CCCC(=O)Nc1c(-c2cccc(OC)c2)c(=O)c2ccccc2n1C,inactive,–
CCn1cc(/C=C(\NC(=O)c2ccc(OC)c(OC)c2)C(=O)N2CCOCC2)c2ccccc21,"inconclusive: 10.4 µM [inhibitor, partial curve, poor fit]",–
COC(=O)C1=C(c2cccc(OCc3ccccc3)c2)C[C@@H]2CC[C@H]1N2C(=O)NCCOc1ccccc1Cl,"inconclusive: 5.22 µM [inhibitor, partial curve]",–
COCCn1c(=S)[nH]c2sc3c(c2c1=O)CCC(C)C3 (configuration not stated),inactive,–
COc1cc(CNn2c(C)n[nH]c2=S)cc(Br)c1OCC(=O)NC(C)(C)C,"inconclusive: 7.38 µM [inhibitor, partial curve, poor fit]",–
COc1ccc(C)cc1NC(=O)CN1CCN(S(=O)(=O)c2ccc3ccccc3c2)CC1,active: 11.7 µM,–
O=C(NC1CN2CCC1CC2)c1ccc(-c2ccc([N+](=O)[O-])cc2)o1 (configuration not stated),"inconclusive: 2.33 µM [inhibitor, full curve, poor fit]",–
COc1ccc(C(=O)c2c(-c3ccc(OC)cc3)oc3ccccc23)cc1,"inconclusive: 10.4 µM [inhibitor, single point]",–
O=C(N/N=C/c1ccc([N+](=O)[O-])cc1)c1cc(C2CC2)[nH]n1,"inconclusive: 18.5 µM [inhibitor, single point]",–
CCSc1nnc(CNc2ccc(C)cc2)n1C,inactive,–
CC1CCN(S(=O)(=O)c2ccc(C(=O)Nc3nnc(-c4ccco4)o3)cc2)CC1,active: 14.7 µM,–
Cc1cc(C)c(C(=O)COC(=O)CCn2c(C)csc2=O)cc1C,inactive,–
COc1ccc(S(=O)(=O)Nc2cc3[nH]c(=O)oc3cc2C)cc1,active: 8.28 µM,–
COCCCNC(=O)c1cn(Cc2c(F)cccc2Cl)nn1,inactive,–
COc1ccc(OCCC(=O)N2CCN(C)CC2)cc1,"inconclusive: 18.5 µM [inhibitor, single point]",–
CC(=O)c1ccc(NC(=O)CN(C)CC(=O)Nc2cccc(F)c2)cc1,inactive,–
O=[N+]([O-])c1ccccc1CNCCCCCO,inactive,–
CC(C)(C)c1ccc(C(=O)CCCSC2=C(C#N)C(c3ccco3)C3=C(CCCC3=O)N2)cc1 (configuration not stated),inactive,–
CCc1cc(=O)oc2cc(C)cc(OCC(=O)NC(Cc3ccc(Cl)cc3)C(=O)O)c12 (configuration not stated),"inconclusive: 0.0928 µM [inhibitor, full curve, poor fit]",–
CNCc1c(OCc2ccccc2)ccc2ccccc12,"inconclusive: 18.5 µM [inhibitor, single point]",–

# Reformatted tab-delimited: part of the list above
Compound	Potency	activity change, negative = inhibition
CCn1cc(/C=C(\NC(=O)c2ccc(OC)c(OC)c2)C(=O)N2CCOCC2)c2ccccc21	inconclusive: 10.4 µM [inhibitor, partial curve, poor fit]	–
COc1ccc(C(=O)c2c(-c3ccc(OC)cc3)oc3ccccc23)cc1	inconclusive: 10.4 µM [inhibitor, single point]	–
COc1ccc(OCCC(=O)N2CCN(C)CC2)cc1	inconclusive: 18.5 µM [inhibitor, single point]	–

# An excerpt of these results, with bars between the fields.
Compound | Potency | activity change, negative = inhibition
CCc1cc(=O)oc2cc(C)cc(OCC(=O)NC(Cc3ccc(Cl)cc3)C(=O)O)c12 (configuration not stated) | inconclusive: 0.0928 µM [inhibitor, full curve, poor fit] | –
CNCc1c(OCc2ccccc2)ccc2ccccc12 | inconclusive: 18.5 µM [inhibitor, single point] | –

# (cont.)

Compound,Potency,"activity change, negative = inhibition"
COc1ccc(C(CNC(=O)C(CCSC)NC(=O)c2ccccc2Cl)N2CCCC2)cc1 (configuration not stated),"inconclusive: 13.1 µM [inhibitor, single point]",–
CN(NC(=O)NN)c1ncc(C(F)(F)F)cc1Cl,"inconclusive: 0.0047 µM [inhibitor, full curve, poor fit]",–
CCOc1ccc2c(c1)C(=NNC(=O)c1ccncc1)c1cc(OCC)ccc1-2,active: 2.08 µM,–
CC(=O)Oc1ccc(/C=C2/Oc3ccccc3C2=O)cc1,inactive,–
Cc1ccnc(NC(=O)c2ccccc2NC(=O)C(C)(C)C)c1,"inconclusive: 18.5 µM [inhibitor, single point]",–
O=C(NCC(c1ccco1)N1CCN(c2ccccc2F)CC1)OCc1ccccc1 (configuration not stated),"inconclusive: 18.5 µM [inhibitor, single point]",–
COc1ccc(NC(=O)NC2(C(=O)N3CCCCC3)CCCCC2)cc1,inactive,–
COCc1cc(=O)n2[nH]c(-c3ccccc3)cc2n1,inactive,–
Cc1ccc(S(=O)(=O)N2CCN(C(=O)c3ccc4c(c3)OCO4)CC2)cc1,"inconclusive: 18.5 µM [inhibitor, partial curve, poor fit]",–
Clc1cc(Cl)c2nc(N3CCCCC3)sc2c1,inactive,–
Cc1cc(C)cc(NC(=O)CSc2nnc(-c3ccccc3C)o2)c1,inactive,–
Cc1cc(N/N=C/c2ccc(O)cc2O)nc(N2CCOCC2)n1,"inconclusive: 9.28 µM [inhibitor, partial curve, poor fit]",–
COc1ccc(N2CCN(C(=O)CCCOc3cc(=O)n(C)c4ccccc34)CC2)cc1,active: 11.7 µM,–
O=c1[nH]c(SCc2nc3ccccc3c(=O)n2-c2ccccc2)nc2ccccc12,"inconclusive: 18.5 µM [inhibitor, single point]",–
CC(=O)C1=C(O)C(=O)N(c2ccc(Br)cc2)C1c1ccc([N+](=O)[O-])cc1 (configuration not stated),inactive,–
Cc1ccc2c(CN3CCC(C)CC3)cc(=O)oc2c1C,"inconclusive: 16.5 µM [inhibitor, single point]",–
Cc1c(C(=O)Nc2ccccc2)sc2nc(-c3ccccc3)cn12,"inconclusive: 3.7 µM [inhibitor, partial curve, poor fit]",–
CN(Cc1cn(-c2ccccc2)nc1-c1ccc(Cl)cc1)C(=O)CCC(=O)O,"inconclusive: 0.586 µM [inhibitor, partial curve, poor fit]",–
C/C(=N\NC(N)=S)C12CC3CC(CC(C3)C1)C2,active: 5.22 µM,–
Cc1cccc(NC(=O)CNC(=O)CN2CCN(C)CC2)c1C,"inconclusive: 18.5 µM [inhibitor, partial curve, poor fit]",–
CC1(C)Cc2c(sc3nc(NCCN4CCOCC4)n4ncnc4c23)CO1,"inconclusive: 8.28 µM [inhibitor, partial curve]",–
CC(=O)c1cccc(NC(=O)NC2CCCCC2)c1,"inconclusive: 13.1 µM [inhibitor, partial curve, poor fit]",–
O=C(Nc1cccc([N+](=O)[O-])c1)c1ccc(CN2CCOCC2)cc1,active: 11.7 µM,–
COc1cc(CNC(=O)c2cc(C(=O)NCc3cc(OC)cc(OC)c3)n(C)n2)cc(OC)c1,"inconclusive: 4.15 µM [inhibitor, partial curve]",–

Compound,Potency,"activity change, negative = inhibition"
Cc1ccc(OCCn2cnc3c2c(=O)n(C)c(=O)n3C)cc1,inactive,–
CC(C)N1CC=C2C(C#N)=C(N)C(C#N)(C#N)[C@H](c3ccoc3)[C@H]2C1,"inconclusive: 9.28 µM [inhibitor, partial curve, poor fit]",–
CC(=O)C1=C(C)Nc2ncnn2C1c1cccc(OCc2ccccc2)c1 (configuration not stated),inactive,–
COC(=O)c1ccc(Oc2ccc(C(F)(F)F)cn2)cc1,inactive,–
CC(=O)Nc1ccc(C(=O)CSc2nnnn2C)cc1,inactive,–
O=C(N/N=C/c1ccc(Cl)cc1Cl)Nc1ccccc1,inactive,–
Cc1ccc(C)c2[nH]c(=O)c(CCNC(=O)c3ccc(S(=O)(=O)N4CCCC4)cc3)cc12,"inconclusive: 4.15 µM [inhibitor, partial curve]",–
Cc1cc(C)c2nc(SCC(=O)N3CC(=O)Nc4ccccc43)c(C#N)cc2c1,"inconclusive: 2.94 µM [inhibitor, full curve, poor fit]",–
CC(C)[C@H](NC(=O)OC(C)(C)C)c1nnc(SCc2cccc(F)c2)o1,"inconclusive: 18.5 µM [inhibitor, single point]",–
O=[N+]([O-])c1nn(-c2ccccc2)n(O)c1=NC1CCN(Cc2ccccc2)CC1,"inconclusive: 6.57 µM [inhibitor, partial curve, poor fit]",–
Cn1c(=O)c2c(nc(Oc3ccccn3)n2C)n(C)c1=O,"inconclusive: 2.94 µM [inhibitor, partial curve]",–
CC(C(=O)N1CCN(C2c3ccccc3-c3ccccc32)CC1)N1C(=O)c2ccccc2C1=O (configuration not stated),"inconclusive: 10.4 µM [inhibitor, partial curve]",–
Cc1ccc(-c2nnc(N3CCOCC3)c3ccccc23)cc1S(=O)(=O)NCC1CCCO1 (configuration not stated),inactive,–
CC(=O)c1cccc(N(C(=O)Cn2nnc3ccccc32)C(C(=O)NCc2ccccc2)c2ccccn2)c1 (configuration not stated),inactive,–
Cc1ccc2cc(CN(Cc3ccc4c(c3)OCO4)Cc3nnnn3Cc3ccco3)c(=O)[nH]c2c1,inactive,–
COc1ccc(-c2cc(C)no2)cc1S(=O)(=O)NCCCN1CCN(c2ccccc2)CC1,"inconclusive: 20.8 µM [inhibitor, partial curve, poor fit]",–
CC(=NCCO)c1c(O)n(C2CCCCC2)c(=O)[nH]c1=O,–,inactive: -1.84% [at 5.75 µM]
CCCCc1n[nH]c(=S)n1Cc1ccc(C)cc1,"inconclusive: 4.15 µM [inhibitor, partial curve, poor fit]",–
CN(C)C(=O)c1ccc(NC(=O)c2cccc(S(=O)(=O)N3CCCc4ccccc43)c2)cc1,active: 9.28 µM,–
C/C(=N\Nc1cc(C)nc(-c2ccccc2O)n1)c1ccccc1O,"inconclusive: 16.5 µM [inhibitor, single point]",–
CC1Cn2c(nnc2-c2cccc(Cl)c2)S1 (configuration not stated),"inconclusive: 18.5 µM [inhibitor, single point]",–
CCc1ccc(Nc2ccc(C(N)=O)cc2[N+](=O)[O-])cc1,inactive,–
CCOc1cc(OCC)c(C(C)=O)cc1OCC,"inconclusive: 0.185 µM [inhibitor, full curve, poor fit]",–
O=C(O)/C=C/c1ccc2c(c1)OCCO2,"inconclusive: 14.7 µM [inhibitor, partial curve, poor fit]",–
